From PubChem BioAssay AID540276 (National Center for Advancing Translational Sciences (NCATS), 2011)
Several values for one entry are separate records, joined by “and”; a condition that tells them apart may be missing. Equal entries are not always repeated. About 5,400 (1.8%) of roughly 300,000 compounds were called active. Inconclusive results, whose numbers are uncertain, are shown with a selection of clear calls. Calls follow the shape of the full dose curve; tested in HEK293 cells. Where the call is inconclusive, the potency comes from a doubtful curve fit.

Assay: qHTS for inhibitors of binding or entry into cells for Marburg Virus
Conditions: Marburg virus pseudotyped entry inhibition, cell reporter; activity change, negative = inhibition: at 37.8 µM (top of the series) unless noted
% is scaled to controls: 0 for no effect and ±100 for the full control effect; potency is read from the fitted curve at half-maximal effect.

Row | Structure (SMILES) | Potency | activity change, negative = inhibition
1 | O=C(COC(=O)CSc1ccc2ccccc2c1)NC1CC1 | inconclusive: 0.501 µM [activator, full curve, poor fit] | 
2 | c1ccc(-c2ncc(-c3ccn[nH]3)s2)cc1 | inconclusive: 14.1 µM [inhibitor, single point] | 
3 | Cn1c(SCc2ccc(C(=O)Nc3nccs3)cc2)nnc1-c1ccccc1 |  | inactive: 15%
4 | COCOCCn1cc(CN2CCS(=O)(=O)N(Cc3ccc(-c4cccc(N(C)C)c4)cc3)C(C(C)C)C2=O)nn1 (configuration not stated) | inconclusive: 0.223 µM [inhibitor, full curve, poor fit] | 
5 | CCOc1cc(/C=N\NC(=O)c2ccc(NC(=O)C(C)(C)C)cc2)ccc1OC(=O)c1ccc(OC)cc1 |  | inactive: -0.749%
6 | O=C(Nc1ccccc1)c1ccc(N2CCN(c3ccccc3)CC2)c(S(=O)(=O)N2CCOCC2)c1 |  | inactive: -4.36%
7 | Cc1c(C#N)sc2nc(-c3ccccc3)nc(N3CCCC3)c12 | inconclusive: 35.5 µM [activator, single point] | 
8 | COc1ccc2c(C)cc(=O)oc2c1C |  | inactive: 13.1%
9 | CC(C)(C)C(=O)N1CCn2c1nc1ccccc12 |  | inactive: 3.2% [at 46.1 µM]
10 | Cc1ccsc1/C=C/C1=Cc2c(sc(NC(=O)CSc3n[nH]c(N)n3)c2C#N)C(C)(C)C1 | inactive and inconclusive: 820 nM [inhibitor, partial curve, poor fit] | 
11 | COC(=O)c1ccc(CN2CCc3ccc(NC(=O)c4ccncc4)cc3C2)cc1 | inconclusive: 15.8 µM [inhibitor, partial curve] | 
12 | N#CCCn1nnc(-c2ccccc2F)n1 |  | inactive: 25.9%
13 | COc1cccc(NC(=O)C2CCN(S(=O)(=O)c3cccc4nonc34)CC2)c1 | inconclusive: 35.5 µM [activator, single point] | 
14 | OCCNCC(O)CN1c2ccccc2Sc2ccccc21 (configuration not stated) | inconclusive: 35.5 µM [inhibitor, single point] | 
15 | Cc1ccc(NS(=O)(=O)c2cccc(C(=O)NCCCN3CCOCC3)c2)cc1 | inconclusive: 0.316 µM [inhibitor, partial curve, poor fit] | 
16 | O=C(c1cccnc1NCc1ccc(F)cc1)N1CCOCC1 | inconclusive: 1.26 µM [activator, single point] | 
17 | CSc1sc(-c2n[nH]c(=S)n2C)c2c1C=CCC2 |  | inactive: 21.6%
18 | O=C1c2ccccc2-c2nnc(-c3ccc(F)cc3)cc21 | inconclusive: 0.562 µM [activator, full curve, poor fit] | 
19 | CCN(CC)c1nc2c(-c3cccc(Br)c3)nnn2c2ccccc12 | inconclusive: 22.4 µM [activator, single point] | 
20 | CC(C)(C)C(=O)N/C(N)=N/c1nc2ccccc2o1 | inconclusive: 6.31 µM [inhibitor, full curve, poor fit] | 
21 | COc1ccc(CNC(=O)c2ccc(NC(=O)N3CC4CCCN4c4ccccc43)cc2)cc1 (configuration not stated) | inconclusive: 5.62 µM [inhibitor, single point] | 

Individual results from above.
Cn1c(SCc2ccc(C(=O)Nc3nccs3)cc2)nnc1-c1ccccc1 – activity change, negative = inhibition: inactive: 15%
COc1ccc2c(C)cc(=O)oc2c1C – activity change, negative = inhibition: inactive: 13.1%
Cc1c(C#N)sc2nc(-c3ccccc3)nc(N3CCCC3)c12 – Potency: inconclusive: 35.5 µM [activator, single point]

Next part.

Row | Structure (SMILES) | Potency | activity change, negative = inhibition
22 | CC(NCC1COc2ccccc2O1)C(=O)NCc1ccccc1 (configuration not stated) |  | inactive: 2.78% [at 46.1 µM]
23 | N#Cc1c(N2CCCC(O)C2)nc(N)c2c(N)nc3c(c12)CC(=O)N3C12CC3CC(CC(C3)C1)C2 (configuration not stated) | inconclusive: 5.17 µM [inhibitor, partial curve, poor fit] | 
24 | O=C(CSc1oc(-c2ccccc2)nc1S(=O)(=O)c1ccc(F)cc1)NCC1CCCO1 (configuration not stated) | inconclusive: 0.82 µM [inhibitor, full curve, poor fit] | 
25 | COc1cc(/C=C(\C#N)C(=O)Nc2ccccn2)ccc1O | inconclusive: 6.31 µM [activator, partial curve] | 
26 | CC1CCCCN1C(=O)Cn1c(=O)n(-c2ccc(Cl)cc2)c(=O)c2c3c(sc21)CCC3 (configuration not stated) | inconclusive: 5.01 µM [activator, single point] | 
27 | Cn1c(SCC#N)nnc1-c1cnccn1 | inconclusive: 0.517 µM [activator, single point] | 
28 | CCN(CC)S(=O)(=O)c1ccc(N2CCOCC2)c(NC(=O)Cc2cccc3ccccc23)c1 | inconclusive: 5.8 µM [inhibitor, partial curve, poor fit] | 
29 | COc1ccc(C(=O)NCCOc2ccccc2Cl)c(OC)c1OC |  | inactive: -4.59%
30 | O=C(NCCC1=CCCCC1)c1ccc2c(c1)N(Cc1ccccc1F)C(=O)c1ccccc1S2=O (configuration not stated) | inconclusive: 14.1 µM [inhibitor, single point] | 
31 | O=C(c1ccc(Br)cc1)N(Cc1nc2ccccc2c(=O)[nH]1)C1CCCC1 | inconclusive: 7.08 µM [inhibitor, partial curve, poor fit] | 
32 | O=C(c1cc(COc2ccc3ncccc3c2)on1)N1CCCC1 | inconclusive: 7.94 µM [inhibitor, partial curve, poor fit] | 
33 | CC(C)(C)NC(=O)C(c1cccs1)N(Cc1cccs1)C(=O)c1ccc(CN2CCOCC2)o1 (configuration not stated) |  | inactive: -6.79% [at 46.1 µM]
34 | CCN(C1CCCCC1)S(=O)(=O)c1ccc(OC)c(C)c1 | inconclusive: 35.5 µM [inhibitor, single point] | 
35 | COc1ccc(NC(=O)N2c3ccccc3CC2C)cc1OC (configuration not stated) |  | inactive: 2.78%
36 | CN1N=C(N)c2cn(C3OC(COP(=O)(O)O)C(O)C3O)c3ncnc1c23 (configuration not stated) | inconclusive: 3.55 µM [inhibitor, partial curve, poor fit] | 
37 | Cc1c(C(=O)NCc2ccccc2)oc2ccc(S(=O)(=O)N3CCC4(CC3)OCCO4)cc12 | inconclusive: 32.6 µM [inhibitor, single point] | 
38 | COc1ccc(C2NC(=O)NC(C)=C2C(=O)OC2CCCC(C)C2)cc1 (configuration not stated) | inconclusive: 35.5 µM [inhibitor, single point] | 
39 | COc1cc(/C(C)=N\NC(=O)CSc2nc3ccccc3n2C)ccc1O | inconclusive: 1.12 µM [inhibitor, full curve, poor fit] | 
40 | COc1cc(OC)cc(C(=O)NNC(=S)NC2CC2)c1 |  | inactive: -4.3% [at 46.1 µM]
41 | C#CCn1c(=O)c2c(ncn2C)n(C)c1=O | inconclusive: 0.398 µM [activator, single point] | 
42 | COc1ccc(CN2C(=O)c3ccccc3C2=O)cc1C(=O)Nc1ccccc1N1CCOCC1 | inconclusive: 35.5 µM [inhibitor, single point] | 
